{"source": "patent US20160113911A1", "about": "“METHODS AND COMPOSITIONS FOR THE TREATMENT OF CANCER” (THE GENERAL HOSPITAL CORPORATION, priority 2013, published 2016)"}
{"test": "Subcellular localization of KDM4 variants (immunofluorescence)", "type": "cell-based", "conditions": "KDM4A mutations; % nuclear"}
{"molecule": "2A-R152W*: KDM4A mutation (protein, UniProt O75164 2-1064, looked up, variant R152W) Lysine-specific demethylase 4A: ASESETLNPSARIMTFYPTMEEFRNFSRYIAYIESQGAHRAGLAKVVPPKEWKPRASYDDIDDLVIPAPIQQLVTGQSGLFTQYNIQKKAMTVREFRKIANSDKYCTPRYSEFEELERKYWKNLTFNPPIYGADVNGTLYEKHVDEWNIGWLRTILDLVEKESGITIEGVNTPYLYFGMWKTSFAWHTEDMDLYSINYLHFGEPKSWYSVPPEHGKRLERLAKGFFPGSAQSCEAFLRHKMTLISPLMLKKYGIPFDKVTQEAGEFMITFPYGYHAGFNHGFNCAESTNFATRRWIEYGKQAVLCSCRKDMVKISMDVFVRKFQPERYKLWKAGKDNTVIDHTLPTPEAAEFLKESELPPRAGNEEECPEEDMEGVEDGEEGDLKTSLAKHRIGTKRHRVCLEIPQEVSQSELFPKEDLSSEQYEMTECPAALAPVRPTHSSVRQVEDGLTFPDYSDSTEVKFEELKNVKLEEEDEEEEQAAAALDLSVNPASVGGRLVFSGSKKKSSSSLGSGSSRDSISSDSETSEPLSCRAQGQTGVLTVHSYAKGDGRVTVGEPCTRKKGSAARSFSERELAEVADEYMFSLEENKKSKGRRQPLSKLPRHHPLVLQECVSDDETSEQLTPEEEAEETEAWAKPLSQLWQNRPPNFEAEKEFNETMAQQAPHCAVCMIFQTYHQVEFGGFNQNCGNASDLAPQKQRTKPLIPEMCFTSTGCSTDINLSTPYLEEDGTSILVSCKKCSVRVHASCYGVPPAKASEDWMCSRCSANALEEDCCLCSLRGGALQRANDDRWVHVSCAVAILEARFVNIAERSPVDVSKIPLPRFKLKCIFCKKRRKRTAGCCVQCSHGRCPTAFHVSCAQAAGVMMQPDDWPFVVFITCFRHKIPNLERAKGALQSITAGQKVISKHKNGRFYQCEVVRLTTETFYEVNFDDGSFSDNLYPEDIVSQDCLQFGPPAEGEVVQVRWTDGQVYGAKFVASHPIQMYQVEFEDGSQLVVKRDDVYTLDEELPKRVKSRLSVASDMRFNEIFTEKEVKQEKKRQRVINSRYREDYIEPALYRAIME", "Localization": "+++ (+++ indicates >80% nuclear)"}
{"molecule": "2A-R218W: KDM4A mutation (protein) MASESETLNPSARIMTFYPTMEEFRNFSRYIAYIESQGAHRAGLAKVVPPKEWKPRASYDDIDDLVIPAPIQQLVTGQSGLFTQYNIQKKAMTVREFRKIANSDKYCTPRYSEFEELERKYWKNLTFNPPIYGADVNGTLYEKHVDEWNIGRLRTILDLVEKESGITIEGVNTPYLYFGMWKTSFAWHTEDMDLYSINYLHFGEPKSWYSVPPEHGKWLERLAKGFFPGSAQSCEAFLRHKMTLISPLMLKKYGIPFDKVTQEAGEFMITFPYGYHAGFNHGFNCAESTNFATRRWIEYGKQAVLCSCRKDMVKISMDVFVRKFQPERYKLWKAGKDNTVIDHTLPTPEAAEFLKESELPPRAGNEEECPEEDMEGVEDGEEGDLKTSLAKHRIGTKRHRVCLEIPQEVSQSELFPKEDLSSEQYEMTECPAALAPVRPTHSSVRQVEDGLTFPDYSDSTEVKFEELKNVKLEEEDEEEEQAAAALDLSVNPASVGGRLVFSGSKKKSSSSLGSGSSRDSISSDSETSEPLSCRAQGQTGVLTVHSYAKGDGRVTVGEPCTRKKGSAARSFSERELAEVADEYMFSLEENKKSKGRRQPLSKLPRHHPLVLQECVSDDETSEQLTPEEEAEETEAWAKPLSQLWQNRPPNFEAEKEFNETMAQQAPHCAVCMIFQTYHQVEFGGFNQNCGNASDLAPQKQRTKPLIPEMCFTSTGCSTDINLSTPYLEEDGTSILVSCKKCSVRVHASCYGVPPAKASEDWMCSRCSANALEEDCCLCSLRGGALQRANDDRWVHVSCAVAILEARFVNIAERSPVDVSKIPLPRFKLKCIFCKKRRKRTAGCCVQCSHGRCPTAFHVSCAQAAGVMMQPDDWPFVVFITCFRHKIPNLERAKGALQSITAGQKVISKHKNGRFYQCEVVRLTTETFYEVNFDDGSFSDNLYPEDIVSQDCLQFGPPAEGEVVQVRWTDGQVYGAKFVASHPIQMYQVEFEDGSQLVVKRDDVYTLDEELPKRVKSRLSVASDMRFNEIFTEKEVKQEKKRQRVINSRYREDYIEPALYRAIME", "Localization": "++ (++ indicates 60-79% nuclear)"}
{"molecule": "2A-G225C: KDM4A mutation (protein) MASESETLNPSARIMTFYPTMEEFRNFSRYIAYIESQGAHRAGLAKVVPPKEWKPRASYDDIDDLVIPAPIQQLVTGQSGLFTQYNIQKKAMTVREFRKIANSDKYCTPRYSEFEELERKYWKNLTFNPPIYGADVNGTLYEKHVDEWNIGRLRTILDLVEKESGITIEGVNTPYLYFGMWKTSFAWHTEDMDLYSINYLHFGEPKSWYSVPPEHGKRLERLAKCFFPGSAQSCEAFLRHKMTLISPLMLKKYGIPFDKVTQEAGEFMITFPYGYHAGFNHGFNCAESTNFATRRWIEYGKQAVLCSCRKDMVKISMDVFVRKFQPERYKLWKAGKDNTVIDHTLPTPEAAEFLKESELPPRAGNEEECPEEDMEGVEDGEEGDLKTSLAKHRIGTKRHRVCLEIPQEVSQSELFPKEDLSSEQYEMTECPAALAPVRPTHSSVRQVEDGLTFPDYSDSTEVKFEELKNVKLEEEDEEEEQAAAALDLSVNPASVGGRLVFSGSKKKSSSSLGSGSSRDSISSDSETSEPLSCRAQGQTGVLTVHSYAKGDGRVTVGEPCTRKKGSAARSFSERELAEVADEYMFSLEENKKSKGRRQPLSKLPRHHPLVLQECVSDDETSEQLTPEEEAEETEAWAKPLSQLWQNRPPNFEAEKEFNETMAQQAPHCAVCMIFQTYHQVEFGGFNQNCGNASDLAPQKQRTKPLIPEMCFTSTGCSTDINLSTPYLEEDGTSILVSCKKCSVRVHASCYGVPPAKASEDWMCSRCSANALEEDCCLCSLRGGALQRANDDRWVHVSCAVAILEARFVNIAERSPVDVSKIPLPRFKLKCIFCKKRRKRTAGCCVQCSHGRCPTAFHVSCAQAAGVMMQPDDWPFVVFITCFRHKIPNLERAKGALQSITAGQKVISKHKNGRFYQCEVVRLTTETFYEVNFDDGSFSDNLYPEDIVSQDCLQFGPPAEGEVVQVRWTDGQVYGAKFVASHPIQMYQVEFEDGSQLVVKRDDVYTLDEELPKRVKSRLSVASDMRFNEIFTEKEVKQEKKRQRVINSRYREDYIEPALYRAIME", "Localization": "++ (++ indicates 60-79% nuclear)"}
{"molecule": "2A-A236V: KDM4A mutation (protein) MASESETLNPSARIMTFYPTMEEFRNFSRYIAYIESQGAHRAGLAKVVPPKEWKPRASYDDIDDLVIPAPIQQLVTGQSGLFTQYNIQKKAMTVREFRKIANSDKYCTPRYSEFEELERKYWKNLTFNPPIYGADVNGTLYEKHVDEWNIGRLRTILDLVEKESGITIEGVNTPYLYFGMWKTSFAWHTEDMDLYSINYLHFGEPKSWYSVPPEHGKRLERLAKGFFPGSAQSCEVFLRHKMTLISPLMLKKYGIPFDKVTQEAGEFMITFPYGYHAGFNHGFNCAESTNFATRRWIEYGKQAVLCSCRKDMVKISMDVFVRKFQPERYKLWKAGKDNTVIDHTLPTPEAAEFLKESELPPRAGNEEECPEEDMEGVEDGEEGDLKTSLAKHRIGTKRHRVCLEIPQEVSQSELFPKEDLSSEQYEMTECPAALAPVRPTHSSVRQVEDGLTFPDYSDSTEVKFEELKNVKLEEEDEEEEQAAAALDLSVNPASVGGRLVFSGSKKKSSSSLGSGSSRDSISSDSETSEPLSCRAQGQTGVLTVHSYAKGDGRVTVGEPCTRKKGSAARSFSERELAEVADEYMFSLEENKKSKGRRQPLSKLPRHHPLVLQECVSDDETSEQLTPEEEAEETEAWAKPLSQLWQNRPPNFEAEKEFNETMAQQAPHCAVCMIFQTYHQVEFGGFNQNCGNASDLAPQKQRTKPLIPEMCFTSTGCSTDINLSTPYLEEDGTSILVSCKKCSVRVHASCYGVPPAKASEDWMCSRCSANALEEDCCLCSLRGGALQRANDDRWVHVSCAVAILEARFVNIAERSPVDVSKIPLPRFKLKCIFCKKRRKRTAGCCVQCSHGRCPTAFHVSCAQAAGVMMQPDDWPFVVFITCFRHKIPNLERAKGALQSITAGQKVISKHKNGRFYQCEVVRLTTETFYEVNFDDGSFSDNLYPEDIVSQDCLQFGPPAEGEVVQVRWTDGQVYGAKFVASHPIQMYQVEFEDGSQLVVKRDDVYTLDEELPKRVKSRLSVASDMRFNEIFTEKEVKQEKKRQRVINSRYREDYIEPALYRAIME", "Localization": "+++ (+++ indicates >80% nuclear)"}
{"molecule": "2A-R239H: KDM4A mutation (protein) MASESETLNPSARIMTFYPTMEEFRNFSRYIAYIESQGAHRAGLAKVVPPKEWKPRASYDDIDDLVIPAPIQQLVTGQSGLFTQYNIQKKAMTVREFRKIANSDKYCTPRYSEFEELERKYWKNLTFNPPIYGADVNGTLYEKHVDEWNIGRLRTILDLVEKESGITIEGVNTPYLYFGMWKTSFAWHTEDMDLYSINYLHFGEPKSWYSVPPEHGKRLERLAKGFFPGSAQSCEAFLHHKMTLISPLMLKKYGIPFDKVTQEAGEFMITFPYGYHAGFNHGFNCAESTNFATRRWIEYGKQAVLCSCRKDMVKISMDVFVRKFQPERYKLWKAGKDNTVIDHTLPTPEAAEFLKESELPPRAGNEEECPEEDMEGVEDGEEGDLKTSLAKHRIGTKRHRVCLEIPQEVSQSELFPKEDLSSEQYEMTECPAALAPVRPTHSSVRQVEDGLTFPDYSDSTEVKFEELKNVKLEEEDEEEEQAAAALDLSVNPASVGGRLVFSGSKKKSSSSLGSGSSRDSISSDSETSEPLSCRAQGQTGVLTVHSYAKGDGRVTVGEPCTRKKGSAARSFSERELAEVADEYMFSLEENKKSKGRRQPLSKLPRHHPLVLQECVSDDETSEQLTPEEEAEETEAWAKPLSQLWQNRPPNFEAEKEFNETMAQQAPHCAVCMIFQTYHQVEFGGFNQNCGNASDLAPQKQRTKPLIPEMCFTSTGCSTDINLSTPYLEEDGTSILVSCKKCSVRVHASCYGVPPAKASEDWMCSRCSANALEEDCCLCSLRGGALQRANDDRWVHVSCAVAILEARFVNIAERSPVDVSKIPLPRFKLKCIFCKKRRKRTAGCCVQCSHGRCPTAFHVSCAQAAGVMMQPDDWPFVVFITCFRHKIPNLERAKGALQSITAGQKVISKHKNGRFYQCEVVRLTTETFYEVNFDDGSFSDNLYPEDIVSQDCLQFGPPAEGEVVQVRWTDGQVYGAKFVASHPIQMYQVEFEDGSQLVVKRDDVYTLDEELPKRVKSRLSVASDMRFNEIFTEKEVKQEKKRQRVINSRYREDYIEPALYRAIME", "Localization": "+++ (+++ indicates >80% nuclear)"}
